# According to PMC12752518:
# No constants are given. Whether binding was seen depends on the method and setting. In cells and extracts the contact can be indirect. Some binding calls cover weakened binding; strength is not graded here.
# Tests used:
# [1] = target: T1, carrier-free recombinant human VISTA (V-domain immunoglobulin-containing suppressor of T cell activation) (human) (UniProt Q9H7M9); test: co-IP; ELISA plates coated with anti-PD-L1 or anti-VISTA capture antibody, 4 ng recombinant PD-L1 or VISTA immobilised on them; Jurkat T cell lysate loaded, 2 h at room temperature, washed with TBST, extracted with glycine-HCl pH 2.0, Western blot of PD-1; only the target purified
# T1 sequence: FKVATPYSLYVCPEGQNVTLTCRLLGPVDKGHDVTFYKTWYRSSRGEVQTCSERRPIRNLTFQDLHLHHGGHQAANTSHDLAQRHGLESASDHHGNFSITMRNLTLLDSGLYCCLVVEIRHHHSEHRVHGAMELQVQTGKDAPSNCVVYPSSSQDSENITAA
# [2] = target: T2, VISTA expressed by Jurkat T cells (human (endogenous in Jurkat)) (UniProt Q9H7M9); test: co-IP; control wells: ELISA plates coated with anti-PD-L1 or anti-VISTA capture antibody, no recombinant protein; Jurkat T cell lysate loaded, 2 h at room temperature, extracted with glycine-HCl pH 2.0, Western blot of PD-1
# T2 sequence: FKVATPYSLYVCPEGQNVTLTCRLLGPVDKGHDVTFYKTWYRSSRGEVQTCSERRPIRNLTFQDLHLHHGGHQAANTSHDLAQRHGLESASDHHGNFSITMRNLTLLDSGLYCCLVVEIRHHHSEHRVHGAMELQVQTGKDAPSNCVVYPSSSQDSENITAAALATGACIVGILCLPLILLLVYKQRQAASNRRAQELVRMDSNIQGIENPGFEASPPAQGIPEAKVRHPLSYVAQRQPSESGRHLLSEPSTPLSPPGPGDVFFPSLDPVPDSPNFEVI
substance,measurement,setting,value
PD-1 of Jurkat T cells (programmed cell death protein 1) (from UniProt Q15116 25-288) (receptor),binding,[1],binds
same,binding,[2],binds weakly
